Test results published in publication PMC7960550.

The chains behind the UniProt entries cited, without tags or fusion partners. Where a name states a change or a piece, a line headed by the entry shows the natural chain unless it says otherwise.
UniProt Q9H040: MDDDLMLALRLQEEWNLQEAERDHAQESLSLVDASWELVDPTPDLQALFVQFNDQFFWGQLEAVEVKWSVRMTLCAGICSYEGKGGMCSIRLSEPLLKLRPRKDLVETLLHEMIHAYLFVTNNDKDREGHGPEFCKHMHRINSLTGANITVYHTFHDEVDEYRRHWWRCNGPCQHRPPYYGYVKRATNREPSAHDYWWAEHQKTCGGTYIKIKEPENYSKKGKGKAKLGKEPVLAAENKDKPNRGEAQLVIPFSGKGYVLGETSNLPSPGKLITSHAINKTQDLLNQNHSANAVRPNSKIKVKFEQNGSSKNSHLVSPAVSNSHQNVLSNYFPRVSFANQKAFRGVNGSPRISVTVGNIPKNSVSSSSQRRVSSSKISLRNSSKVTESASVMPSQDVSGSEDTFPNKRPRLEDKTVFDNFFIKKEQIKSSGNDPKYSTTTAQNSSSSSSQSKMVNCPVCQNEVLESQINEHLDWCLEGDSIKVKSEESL
UniProt P51784: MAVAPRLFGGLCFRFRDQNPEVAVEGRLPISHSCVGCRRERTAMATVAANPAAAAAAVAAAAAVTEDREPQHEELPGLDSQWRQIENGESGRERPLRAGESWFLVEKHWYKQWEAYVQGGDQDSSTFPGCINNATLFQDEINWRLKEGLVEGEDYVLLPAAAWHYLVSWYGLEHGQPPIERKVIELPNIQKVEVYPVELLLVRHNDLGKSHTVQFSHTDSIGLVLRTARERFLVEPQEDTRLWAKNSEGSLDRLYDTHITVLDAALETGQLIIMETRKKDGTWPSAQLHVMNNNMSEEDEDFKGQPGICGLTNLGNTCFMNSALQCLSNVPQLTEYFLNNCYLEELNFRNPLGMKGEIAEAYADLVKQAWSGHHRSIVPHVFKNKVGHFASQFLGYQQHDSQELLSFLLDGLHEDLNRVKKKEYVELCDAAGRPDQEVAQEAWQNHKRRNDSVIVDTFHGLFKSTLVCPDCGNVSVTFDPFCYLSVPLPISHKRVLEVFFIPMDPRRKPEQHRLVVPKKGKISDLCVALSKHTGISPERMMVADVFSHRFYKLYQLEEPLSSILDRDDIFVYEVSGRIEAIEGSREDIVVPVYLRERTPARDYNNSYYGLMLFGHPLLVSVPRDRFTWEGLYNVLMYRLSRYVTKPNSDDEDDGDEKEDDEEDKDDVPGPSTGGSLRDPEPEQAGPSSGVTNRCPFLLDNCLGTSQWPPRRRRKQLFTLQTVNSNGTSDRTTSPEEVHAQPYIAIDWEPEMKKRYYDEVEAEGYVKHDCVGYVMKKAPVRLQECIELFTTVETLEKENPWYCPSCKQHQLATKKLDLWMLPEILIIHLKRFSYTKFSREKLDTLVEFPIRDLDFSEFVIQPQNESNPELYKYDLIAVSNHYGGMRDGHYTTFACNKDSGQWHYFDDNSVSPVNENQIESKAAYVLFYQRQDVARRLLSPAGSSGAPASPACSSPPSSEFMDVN

Target: SFB-SPRTN ΔSprT (UniProt Q9H040)
Assay: co-IP; HEK 293T cells transfected with SFB-tagged (and Myc-tagged) constructs, 24 h; lysed in NETN buffer; S-protein agarose beads overnight at 4 °C; western blot; SFB-SPRTN with USP11 also after 20 μM VP16 for 4 h, CPT, formaldehyde or hydroxyurea (slight increase)

Row | binding | Substance
1 | no binding | Myc-USP11 full-length (FL) (from UniProt P51784 1-963)
2 | no binding | Endogenous USP11 (from UniProt P51784 1-963)

Results are given in words; binding and its absence hold for the method and conditions named. Binding seen in cells or lysates may run through a third protein.
